The data set is described as follows: general procedure: Fmoc solid-phase peptide synthesis; TentaGel S Ram (0.23 mmol/g, 1.2 g); preformed OBt or OAt esters (3 eq.); HATU and DIEA for OAt esters. The note with it: whole synthesis, HPLC and MS, scale of the general procedure 1 g resin.

On to “H-Ac5c-Val-Aib-Glu-Ile-Gln-Leu-Met-His-Gln-Har-Ala-Lys( )Trp-Leu-Asn-Asp( )-NH2”, for which the “crude HPLC purity” value came to 24% and the “final HPLC purity” value stood at 96%.

These data come from patent US20100048462A1 (Zealand Pharma A/S, priority 2006, published 2010).
